Source: PubChem BioAssay AID504444 (National Center for Advancing Translational Sciences (NCATS), 2011)
Among all 360,000 compounds or so, about 7,500 (2.1%) were called active. The inconclusive results got no clear call from the source; some entries with a clear call stand among them for comparison. The call rests on the fitted dose curve; in most records, active means well fitted inhibition curve with a large enough effect; inconclusive means small, poorly fitted or top-dose-only effect, or effect the other way; inactive means flat fitted curve, though single readings scatter. Potencies beside an inconclusive call are fits to weak or partial responses and may not hold up.

Assay: Nrf2 qHTS screen for inhibitors; further: nearly all actives have a fitted effect of over 60% in size
Conditions: A549 ARE-Fluc reporter, luciferase luminescence, 18-24 h; activity change, negative = inhibition: at 46 µM (top of the series)
Method in brief: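 Cells were seeded and rested 2 h, then exposed to compounds for 18-24 h. CellTiter-Fluor was read first as a viability measure. BugLite was added 15 min before the final luminescent read of ARE-luciferase activity in A549 cells.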
On the % scale 0 is the no-effect control and ±100 the full control effect; potency means the concentration at half of the fitted maximal effect.

Q: For O=C(CSc1nc2ccc(Cl)cc2[nH]1)NC1CCCC1, which Potency is on record?
A: The Potency was inconclusive: 18.4 µM [falling, single point].

Q: With Cc1ccc(C(=O)Nc2cccc(C(F)(F)F)c2)cc1NC(=O)c1ccno1 as the compound, how does the Potency read?
A: The Potency was inconclusive: 10.3 µM [falling, partial curve, poor fit].

Q: For CCC(=O)Oc1ccc(C(=O)Nc2ccc3c(c2)OCO3)cc1, which Potency is on record?
A: The Potency was inconclusive: 3.66 µM [activator, partial curve].

Q: For O=C(Nc1sc2c(c1C(=O)O)CCC2)c1ccco1, which Potency is on record?
A: Its Potency is inconclusive: 32.6 µM [falling, partial curve, poor fit].

Q: With N#Cc1cn(-c2cccc(C(F)(F)F)c2)c(=O)[nH]c1=O as the compound, how does the Potency read?
A: The Potency was inconclusive: 2.06 µM [activator, full curve, poor fit].

Q: With O=C(Nc1ccc(Br)cc1)c1cnccn1 as the compound, how does the Potency read?
A: Its Potency is inconclusive: 1.64 µM [activator, full curve].

Q: With Cc1sc2ncnc(N3CCN(S(=O)(=O)c4ccc(C(C)(C)C)cc4)CC3)c2c1C as the compound, how does the Potency read?
A: The Potency was inconclusive: 18.4 µM [falling, single point].

Q: For COc1ccc(-c2cn3cccnc3n2)cc1NC(=O)c1cc(OC)c(OC)c(OC)c1, which “activity change, negative = inhibition” value is on record?
A: The value was inactive: 11.7%.

Q: For Cc1ccc(C(C(=O)NC(C)(C)C)N(Cc2ccco2)C(=O)CCC(=O)Nc2ccccn2)cc1 (stereo unspecified), which activity change, negative = inhibition is on record?
A: The activity change, negative = inhibition was inconclusive: 29.8% [activator].

Q: For O=[N+]([O-])c1ccc(-c2nc(C(Cl)Cl)c3ccccc3n2)cc1, which Potency is on record?
A: The Potency was active: 14.6 µM.

Q: Which Potency does the source give for CN(CC(=O)Nc1ccc(F)cc1)C(=O)c1cccc(S(=O)(=O)N2CCN(c3ccccc3)CC2)c1 here?
A: Its Potency is inconclusive: 16.4 µM [falling, partial curve, poor fit].

Q: Which Potency does the source give for COc1ccc(OC)c2[nH]c(=O)c(CCNC(=O)c3ccc(S(=O)(=O)N4CCCC4)cc3)cc12 here?
A: Its Potency is inconclusive: 32.6 µM [falling, single point].

Q: For COc1ccc2cc(CCNC(=O)c3ccc4c(c3)OCO4)c(=O)[nH]c2c1, which Potency is on record?
A: The Potency was inconclusive: 25.9 µM [falling, partial curve, poor fit].

Q: With Cc1ccc(S(=O)(=O)Nc2ccc(Cl)cc2C(=O)c2ccccc2)cc1 as the compound, how does the Potency read?
A: Its Potency is active: 5.8 µM.

Q: For Cc1ccc(NC(=O)C(CC(C)C)N2Cc3ccccc3C2=O)cc1F (stereo unspecified), which Potency is on record?
A: The Potency was inconclusive: 29.1 µM [activator, single point].

Q: For Cc1ccc2nc(-c3ccc(NC(=O)CSCC(=O)O)cc3)sc2c1, which Potency is on record?
A: Its Potency is inconclusive: 3.66 µM [activator, partial curve].

Q: With CCCCC12CN3CC(C)(CN(C1)C3c1c[nH]c3ccccc13)C2=O (stereo unspecified) as the compound, how does the “activity change, negative = inhibition” value read?
A: The value was inactive: -0.0414%.

Q: For CN1C(=S)SC(N(O)C(=O)Nc2ccccc2)C1(C)C (stereo unspecified), which “activity change, negative = inhibition” value is on record?
A: The value was inactive: 25%.

Q: Which Potency does the source give for CC(=O)NC(c1cccs1)c1cc([N+](=O)[O-])c2cccnc2c1O (stereo unspecified) here?
A: Its Potency is inconclusive: 14.6 µM [falling, partial curve, poor fit].

Q: Which Potency does the source give for O=C(Nc1ccc(S(=O)(=O)N2CCOCC2)cc1)c1ccc(CN2CCc3ccccc3C2)cc1 here?
A: The Potency was active: 0.82 µM.

Q: Which “activity change, negative = inhibition” value does the source give for Cc1ccc(N2C(=O)CSCC2=O)cc1 here?
A: Its value is inactive: -1.71%.

Q: With Cc1cc(C)n(-c2ccc(C(=O)Nc3ccccn3)cc2)n1 as the compound, how does the Potency read?
A: Its Potency is inconclusive: 29.1 µM [falling, single point].

Q: Which “activity change, negative = inhibition” value does the source give for CSC(=S)N/N=C(\C)c1ccc(Br)cc1 here?
A: Its value is inactive: 17.3%.

Q: For O=S(=O)(Cc1ccccc1)Nc1ccc(F)cc1, which Potency is on record?
A: Its Potency is inconclusive: 2.59 µM [falling, full curve].

Q: Which Potency does the source give for Cn1c(=O)c2cn(Cc3ccc(Cl)cc3)cc2n(C)c1=O here?
A: The Potency was active: 11.6 µM.

Q: With CC(=O)N1c2ccc(S(=O)(=O)Nc3ccc(C)c(Cl)c3)cc2CC1C (stereo unspecified) as the compound, how does the Potency read?
A: Its Potency is inconclusive: 16.4 µM [falling, single point].

Q: With C/C(=N\Nc1ccccn1)c1cccs1 as the compound, how does the Potency read?
A: Its Potency is inconclusive: 9.2 µM [activator, partial curve].

Q: Which “activity change, negative = inhibition” value does the source give for COc1cc(OC)c2ccc(=O)oc2c1C(CC(=O)N1CCCCC1)c1ccc2c(c1)OCO2 (stereo unspecified) here?
A: The value was inactive: 13.7%.

Q: With O=C1CC(N2CCC(O)(c3ccc(Cl)cc3)CC2)C(=O)N1Cc1ccc(N2CCCC2=O)cc1 (stereo unspecified) as the compound, how does the Potency read?
A: Its Potency is inconclusive: 29.1 µM [falling, single point].

Q: With CC1=NC(C(F)(F)F)(C(F)(F)F)C2=C(CC(C)(C)CC2=O)N1Cc1ccco1 as the compound, how does the Potency read?
A: Its Potency is inconclusive: 20.6 µM [falling, single point].

Q: For O=C(OCCN=C1NS(=O)(=O)c2ccccc21)c1ccccc1, which Potency is on record?
A: Its Potency is inconclusive: 5.8 µM [falling, partial curve, poor fit].

Q: Which Potency does the source give for O=C(Cc1coc2cc3c(cc12)CCC3)NCC1(N2CCCCC2)CCCCC1 here?
A: The Potency was inconclusive: 1.46 µM [activator, full curve, poor fit].

Q: With CCOC(=O)c1c(CC(C)C)csc1NC(=O)CCl as the compound, how does the “activity change, negative = inhibition” value read?
A: The value was inactive: 10.3%.

Q: For Cc1cccc(N2O[C@H]3C=CC2CCCC3)n1, which “activity change, negative = inhibition” value is on record?
A: The value was inactive: 26.1%.

Q: Which Potency does the source give for CC(=O)c1cccc(NC(=O)c2csc(-n3nc(C)cc3C(F)(F)F)n2)c1 here?
A: Its Potency is inconclusive: 29.1 µM [falling, single point].

Q: Which Potency does the source give for CC(C)=NNc1nc(-c2ccc([N+](=O)[O-])cc2)cs1 here?
A: The Potency was inconclusive: 14.6 µM [falling, partial curve].

Q: With CC1=NN(C(N)=S)C(=O)C1N=Nc1cccc(Cl)c1 (stereo unspecified) as the compound, how does the Potency read?
A: The Potency was inconclusive: 0.58 µM [activator, partial curve, poor fit].

Q: Which Potency does the source give for Cc1nn(CCc2nn[nH]n2)c2nc(-c3ccccc3)cc(C(F)(F)F)c12 here?
A: The Potency was inconclusive: 5.17 µM [falling, partial curve, poor fit].

Q: With CC(=O)c1cccc(OCC(=O)N(CCC2=CCCCC2)c2c(N)n(Cc3ccccc3)c(=O)[nH]c2=O)c1 as the compound, how does the “activity change, negative = inhibition” value read?
A: The value was inactive: -2.87%.

Q: With COc1ccc(OC)c(NC(=O)c2ccc(CN(c3cc(Cl)ccc3C)S(=O)(=O)c3ccccc3)cc2)c1 as the compound, how does the “activity change, negative = inhibition” value read?
A: Its value is inactive: -18.3%.

Q: With Cc1ccc(-n2ncc(C(=O)NCc3ccc4c(c3)OCO4)c2C2CCN(C(=O)OC(C)(C)C)CC2)c(C)c1 as the compound, how does the Potency read?
A: The Potency was inconclusive: 18.4 µM [falling, single point].

Q: For COc1cc(NC(=O)c2ccc(C)cc2C)ccc1NC(=O)c1cc2ccccc2o1, which Potency is on record?
A: Its Potency is inconclusive: 29.1 µM [falling, single point].

Q: For C/C(CCc1ccccc1)=N\NC(=O)c1ccccc1, which Potency is on record?
A: Its Potency is inconclusive: 18.4 µM [activator, partial curve].

Q: For CCC1CCc2c(sc(NC(=O)c3ccco3)c2C(N)=O)C1 (stereo unspecified), which Potency is on record?
A: Its Potency is inconclusive: 9.2 µM [activator, partial curve].

Q: For COc1ccc(NC(=O)C(C)N(C)Cc2ccc3ccccc3c2)cc1 (stereo unspecified), which Potency is on record?
A: Its Potency is inconclusive: 29.1 µM [falling, single point].

Q: With COCC1CCN(Cc2cn[nH]c2-c2ccc(OC)cc2F)C1 (stereo unspecified) as the compound, how does the Potency read?
A: Its Potency is inconclusive: 16.4 µM [activator, partial curve, poor fit].

Q: With COc1ccc(CCNC(=O)CSc2cn(CCNC(=O)c3c(F)cccc3F)c3ccccc23)cc1OC as the compound, how does the Potency read?
A: The Potency was inconclusive: 23.1 µM [falling, partial curve, poor fit].

Q: With CC(C)Cn1c(N)c(C(=O)COC(=O)c2cccc(Cl)c2)c(=O)n(C)c1=O as the compound, how does the Potency read?
A: Its Potency is inconclusive: 20.6 µM [falling, single point].

Q: With Cc1cc(NC(=O)c2cc(-c3ccccc3Cl)nc3ccccc23)no1 as the compound, how does the Potency read?
A: The Potency was inconclusive: 29.1 µM [falling, single point].

Q: Which Potency does the source give for O=C(CCc1ccc(S(=O)(=O)NC2CCCCC2)cc1)NCc1cccnc1 here?
A: The Potency was inconclusive: 18.4 µM [falling, partial curve].

Q: For O=c1cc(N=Nc2ccc(Cl)cc2)[nH]c(=O)[nH]1, which Potency is on record?
A: Its Potency is inconclusive: 29.1 µM [falling, single point].

Q: With CC(C)Sc1ccc(C(=O)Nc2ccc(F)cc2F)cn1 as the compound, how does the Potency read?
A: The Potency was inconclusive: 2.31 µM [activator, full curve, poor fit].

Q: Which Potency does the source give for CNC(=O)NC(=O)C(c1ccccc1)N(C)CC1COc2ccccc2O1 (stereo unspecified) here?
A: The Potency was inconclusive: 29.1 µM [falling, single point].

Q: Which Potency does the source give for Cc1ccc(N(CC(=O)NCCSCc2ccco2)S(=O)(=O)c2ccc(C)cc2)cc1 here?
A: Its Potency is inconclusive: 29.1 µM [falling, single point].

Q: For COc1ccc2c(c1)c(C(=O)N/N=C/c1cccc(Br)c1)c(C)n2C, which Potency is on record?
A: The Potency was inconclusive: 14.6 µM [falling, partial curve].

Q: For COc1ccc(C(=O)CSc2cc(C)nc(SCC(=O)c3ccc(C)cc3)n2)cc1, which Potency is on record?
A: Its Potency is inconclusive: 16.4 µM [falling, partial curve, poor fit].

Q: Which “activity change, negative = inhibition” value does the source give for COc1ccc(-c2noc(=O)n2Cc2cc(C)ccc2C)cc1 here?
A: Its value is inactive: 5.07%.

Q: Which Potency does the source give for O=C(Cc1ccc(Cl)cc1)Nc1ccc(SC(F)F)cc1 here?
A: Its Potency is inconclusive: 23.1 µM [activator, single point].

Q: For O=C(/C=C/c1ccc(Cl)c(Cl)c1)N1CCOCC1, which Potency is on record?
A: The Potency was inconclusive: 23.1 µM [activator, partial curve].

Q: Which “activity change, negative = inhibition” value does the source give for Fc1cccc(CCN2CCNC[C@H]2Cc2cccc3ccccc23)c1 here?
A: Its value is inactive: 19.9%.

Q: For CNC(=S)N1CCN(c2nc3ccccc3s2)CC1, which Potency is on record?
A: The Potency was inconclusive: 6.51 µM [activator, single point].

Q: For COc1ccc(OC)c(NC(=O)CSc2nc3ccccc3cc2Cc2ccccc2)c1, which Potency is on record?
A: The Potency was inconclusive: 18.4 µM [falling, single point].

Q: For CC1CCN(C(=O)Cn2c(=O)n(CCCC(=O)NCc3ccco3)c(=O)c3sccc32)CC1, which Potency is on record?
A: Its Potency is inconclusive: 29.1 µM [activator, single point].

Q: For CCc1ccc(-c2cc(C(=O)N/N=C/c3c[nH]c4ccccc34)[nH]n2)cc1, which Potency is on record?
A: Its Potency is inconclusive: 16.4 µM [falling, partial curve, poor fit].

Q: For Oc1ccc(N2CCN(Cc3nc4ccccc4[nH]3)CC2)cc1, which Potency is on record?
A: Its Potency is inconclusive: 20.6 µM [falling, single point].

Q: For Cc1ccc(-c2cnc(-c3ccncc3)o2)cc1, which Potency is on record?
A: Its Potency is inconclusive: 2.06 µM [activator, single point].
